{"source": "the supplement of paper PMC8728848", "binders": {"B1": {"name": "NK2 (Sus scrofa) (peptide)", "chain": "KILRGVCKKIMRTFLRRISKDILTGKK"}}, "assay_in_all_cases": "glycan array binding signal (z-score within array); higher = stronger binding", "details_in_all_cases": "glycan notation: IUPAC condensed, linker removed", "key": {"[1]": {"molecular_target": "Fuc(a1-2)[Gal(a1-3)]Gal(b1-3)GlcNAc(b1-6)GalNAc", "in_short": "(§1)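 Columns mapping to the same glycan were averaged after glycan names were converted to IUPAC-condensed notation. The data come from 3228 arrays in the Consortium for Functional Glycomics database, limited to those with an available protein sequence. Binding is reported as a within-array Z-score averaged across arrays of one protein sequence and across linkers.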"}, "[2]": {"molecular_target": "Fuc(a1-2)[Gal(a1-3)]Gal(b1-4)Glc", "in_short": "as §1"}, "[3]": {"molecular_target": "Fuc(a1-2)[Gal(a1-3)]Gal(b1-4)GlcNAc", "in_short": "as §1"}, "[4]": {"molecular_target": "Fuc(a1-2)[Gal(a1-3)]Gal(b1-4)GlcNAc(b1-2)Man", "in_short": "as §1"}, "[5]": {"molecular_target": "Fuc(a1-2)[Gal(a1-3)]Gal(b1-4)GlcNAc(b1-2)Man(a1-3)[Fuc(a1-2)[Gal(a1-3)]Gal(b1-4)GlcNAc(b1-2)Man(a1-6)]Man(b1-4)GlcNAc(b1-4)GlcNAc", "in_short": "as §1"}, "[6]": {"molecular_target": "Fuc(a1-2)[Gal(a1-3)]Gal(b1-4)GlcNAc(b1-2)Man(a1-3)[Fuc(a1-2)[Gal(a1-3)]Gal(b1-4)GlcNAc(b1-2)Man(a1-6)]Man(b1-4)GlcNAc(b1-4)[Fuc(a1-6)]GlcNAc", "in_short": "as §1"}, "[7]": {"molecular_target": "Fuc(a1-2)[Gal(a1-3)]Gal(b1-4)GlcNAc(b1-3)GalNAc", "in_short": "as §1"}, "[8]": {"molecular_target": "Fuc(a1-2)[Gal(a1-3)]Gal(b1-4)GlcNAc(b1-3)[Fuc(a1-2)[Gal(a1-3)]Gal(b1-4)GlcNAc(b1-6)]GalNAc", "in_short": "as §1"}, "[9]": {"molecular_target": "Fuc(a1-2)[Gal(a1-3)]Gal(b1-4)GlcNAc(b1-6)GalNAc", "in_short": "as §1"}, "[10]": {"molecular_target": "Fuc(a1-2)[Gal(a1-3)]Gal(b1-4)[Fuc(a1-3)]Glc", "in_short": "as §1"}, "[11]": {"molecular_target": "Fuc(a1-2)[Gal(a1-3)]Gal(b1-4)[Fuc(a1-3)]GlcNAc", "in_short": "as §1"}, "[12]": {"molecular_target": "Fuc(a1-2)[Gal(a1-3)]Gal(b1-4)[Fuc(a1-3)]GlcNAc(b1-3)GalNAc", "in_short": "as §1"}, "[13]": {"molecular_target": "Fuc(a1-2)[Gal(a1-4)]Gal(b1-4)GlcNAc", "in_short": "as §1"}, "[14]": {"molecular_target": "Fuc(a1-2)[GalNAc(a1-3)]Gal", "in_short": "as §1"}, "[15]": {"molecular_target": "Fuc(a1-2)[GalNAc(a1-3)]Gal(b1-3)GalNAc(a1-3)[Fuc(a1-2)]Gal(b1-4)GlcNAc", "in_short": "as §1"}, "[16]": {"molecular_target": "Fuc(a1-2)[GalNAc(a1-3)]Gal(b1-3)GalNAc(b1-3)Gal(a1-4)Gal(b1-4)Glc", "in_short": "as §1"}, "[17]": {"molecular_target": "Fuc(a1-2)[GalNAc(a1-3)]Gal(b1-3)GlcNAc", "in_short": "as §1"}, "[18]": {"molecular_target": "Fuc(a1-2)[GalNAc(a1-3)]Gal(b1-3)GlcNAc(b1-2)Man(a1-3)[Fuc(a1-2)[GalNAc(a1-3)]Gal(b1-3)GlcNAc(b1-2)Man(a1-6)]Man(b1-4)GlcNAc(b1-4)GlcNAc", "in_short": "as §1"}, "[19]": {"molecular_target": "Fuc(a1-2)[GalNAc(a1-3)]Gal(b1-3)GlcNAc(b1-2)Man(a1-3)[Fuc(a1-2)[GalNAc(a1-3)]Gal(b1-3)GlcNAc(b1-2)Man(a1-6)]Man(b1-4)GlcNAc(b1-4)[Fuc(a1-6)]GlcNAc", "in_short": "as §1"}, "[20]": {"molecular_target": "Fuc(a1-2)[GalNAc(a1-3)]Gal(b1-3)GlcNAc(b1-3)GalNAc", "in_short": "as §1"}, "[21]": {"molecular_target": "Fuc(a1-2)[GalNAc(a1-3)]Gal(b1-3)GlcNAc(b1-6)GalNAc", "in_short": "as §1"}, "[22]": {"molecular_target": "Fuc(a1-2)[GalNAc(a1-3)]Gal(b1-4)Glc", "in_short": "as §1"}, "[23]": {"molecular_target": "Fuc(a1-2)[GalNAc(a1-3)]Gal(b1-4)GlcNAc", "in_short": "as §1"}, "[24]": {"molecular_target": "Fuc(a1-2)[GalNAc(a1-3)]Gal(b1-4)GlcNAc(b1-2)Man", "in_short": "as §1"}, "[25]": {"molecular_target": "Fuc(a1-2)[GalNAc(a1-3)]Gal(b1-4)GlcNAc(b1-2)Man(a1-3)[Fuc(a1-2)[GalNAc(a1-3)]Gal(b1-4)GlcNAc(b1-2)Man(a1-6)]Man(b1-4)GlcNAc(b1-4)GlcNAc", "in_short": "as §1"}, "[26]": {"molecular_target": "Fuc(a1-2)[GalNAc(a1-3)]Gal(b1-4)GlcNAc(b1-2)Man(a1-3)[Fuc(a1-2)[GalNAc(a1-3)]Gal(b1-4)GlcNAc(b1-2)Man(a1-6)]Man(b1-4)GlcNAc(b1-4)[Fuc(a1-6)]GlcNAc", "in_short": "as §1"}}, "note": "The list shows a part of the results.", "data": [{"binder": "B1", "values": [{"measurement": "glycan array binding signal (z-score)", "setting": "[1]", "result": 1.05}, {"measurement": "glycan array binding signal (z-score)", "setting": "[2]", "result": 0.328}, {"measurement": "glycan array binding signal (z-score)", "setting": "[3]", "result": -0.19}, {"measurement": "glycan array binding signal (z-score)", "setting": "[4]", "result": -1.38}, {"measurement": "glycan array binding signal (z-score)", "setting": "[5]", "result": 0.87}, {"measurement": "glycan array binding signal (z-score)", "setting": "[6]", "result": -0.152}, {"measurement": "glycan array binding signal (z-score)", "setting": "[7]", "result": -0.435}, {"measurement": "glycan array binding signal (z-score)", "setting": "[8]", "result": 0.063}, {"measurement": "glycan array binding signal (z-score)", "setting": "[9]", "result": 0.282}, {"measurement": "glycan array binding signal (z-score)", "setting": "[10]", "result": -0.572}, {"measurement": "glycan array binding signal (z-score)", "setting": "[11]", "result": 0.425}, {"measurement": "glycan array binding signal (z-score)", "setting": "[12]", "result": 0.783}, {"measurement": "glycan array binding signal (z-score)", "setting": "[13]", "result": 0.293}, {"measurement": "glycan array binding signal (z-score)", "setting": "[14]", "result": -0.389}, {"measurement": "glycan array binding signal (z-score)", "setting": "[15]", "result": 0.266}, {"measurement": "glycan array binding signal (z-score)", "setting": "[16]", "result": 0.467}, {"measurement": "glycan array binding signal (z-score)", "setting": "[17]", "result": 0.659}, {"measurement": "glycan array binding signal (z-score)", "setting": "[18]", "result": -0.288}, {"measurement": "glycan array binding signal (z-score)", "setting": "[19]", "result": 0.245}, {"measurement": "glycan array binding signal (z-score)", "setting": "[20]", "result": -0.472}, {"measurement": "glycan array binding signal (z-score)", "setting": "[21]", "result": -1.01}, {"measurement": "glycan array binding signal (z-score)", "setting": "[22]", "result": -0.127}, {"measurement": "glycan array binding signal (z-score)", "setting": "[23]", "result": -0.655}, {"measurement": "glycan array binding signal (z-score)", "setting": "[24]", "result": 1.39}, {"measurement": "glycan array binding signal (z-score)", "setting": "[25]", "result": -0.787}, {"measurement": "glycan array binding signal (z-score)", "setting": "[26]", "result": 0.216}]}]}
